Here are results for one substance from article doi:10.1101/2025.06.20.659510.

Amino acid sequences for entries named in this document (tags omitted).
UniProt Q08369: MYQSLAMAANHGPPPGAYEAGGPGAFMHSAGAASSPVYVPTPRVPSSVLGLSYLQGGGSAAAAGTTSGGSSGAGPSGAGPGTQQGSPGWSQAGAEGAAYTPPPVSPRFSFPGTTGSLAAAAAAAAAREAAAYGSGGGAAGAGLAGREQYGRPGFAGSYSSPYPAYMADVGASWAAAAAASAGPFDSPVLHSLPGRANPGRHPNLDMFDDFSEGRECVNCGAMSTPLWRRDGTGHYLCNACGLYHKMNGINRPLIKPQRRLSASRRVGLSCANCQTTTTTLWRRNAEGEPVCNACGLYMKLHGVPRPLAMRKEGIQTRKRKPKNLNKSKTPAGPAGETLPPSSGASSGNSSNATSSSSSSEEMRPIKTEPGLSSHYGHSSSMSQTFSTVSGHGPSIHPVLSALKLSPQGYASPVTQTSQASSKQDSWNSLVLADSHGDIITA
UniProt P42582: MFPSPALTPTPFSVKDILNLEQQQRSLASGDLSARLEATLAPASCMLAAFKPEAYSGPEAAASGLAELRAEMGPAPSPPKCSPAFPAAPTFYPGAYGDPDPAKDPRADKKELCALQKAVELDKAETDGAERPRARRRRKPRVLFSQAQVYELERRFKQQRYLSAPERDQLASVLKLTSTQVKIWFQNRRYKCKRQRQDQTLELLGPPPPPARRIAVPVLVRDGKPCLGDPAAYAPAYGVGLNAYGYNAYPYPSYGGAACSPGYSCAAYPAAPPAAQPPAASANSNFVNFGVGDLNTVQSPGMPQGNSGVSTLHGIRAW

Results are given in words; binding and its absence hold for the method and conditions named. Some entries that bind do so weakly or less than the wild type.

The target in one test is GATA4 (mouse) (UniProt Q08369). Description: two-hybrid; liquid yeast two-hybrid in S. cerevisiae; pGADT7 Gal4 activation domain-Nkx2-5 (WT or variant) co-transformed with pGBKT7 Gal4 DNA-binding domain-TF (NKX2-5, GATA4, TBX5, TBX20b or HAND1); high stringency liquid medium (-Ade/-His/-Leu/Trp), 30°C, FDG fluorescence at two time-points, T2 normalised to T1; N188K with HAND1 followed out to day 5.

The target of the next test is T1, HAND1 (mouse) (UniProt Q64279).
T1 sequence: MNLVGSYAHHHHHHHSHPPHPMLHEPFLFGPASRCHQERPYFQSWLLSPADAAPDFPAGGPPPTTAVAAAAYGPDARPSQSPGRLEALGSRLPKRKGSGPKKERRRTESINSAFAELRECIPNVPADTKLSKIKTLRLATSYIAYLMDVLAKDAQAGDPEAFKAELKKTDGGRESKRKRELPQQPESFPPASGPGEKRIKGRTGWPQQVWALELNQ
Described as above.

In the case of “NKX2-5 wild type (from UniProt P42582 1-318)”, the binding entry with GATA4 (mouse) and in the test with HAND1 (mouse) was “binds” each time.
